Data from paper PMC7925594.

Molecular target: Flag-NEMO coil zipper (COZI) domain
Assay: co-IP; HEK293T or N4BP1-/- HEK293T cells co-transfected with HA-N4BP1 (or deletion mutants) and Flag-NEMO (or deletion mutants); NP-40 lysis buffer; immunoprecipitation and immunoblot

binding: binds
B1: HA-tagged N4BP1 (full-length) (protein, UniProt O75113 1-896)
chain: MAARAVLDEFTAPAEKAELLEQSRGRIEGLFGVSLAVLGALGAEEPLPARIWLQLCGAQEAVHSAKEYIKGICEPELEERECYPKDMHCIFVGAESLFLKSLIQDTCADLCILDIGLLGIRGSAEAVVMARSHIQQFVKLFENKENLPSSQKESEVKREFKQFVEAHADNYTMDLLILPTSLKKELLTLTQGEENLFETGDDEVIEMRDSQQTEFTQNAATGLNISRDETVLQEEARNKAGTPVSELTKQMDTVLSSSPDVLFDPINGLTPDEEALSNERICQKRRFSDSEERHTKKQFSLENVQEGEILHDAKTLAGNVIADLSDSSADSENLSPDIKETTEEMEYNILVNFFKTMGYSQEIVEKVIKVYGPSTEPLLLLEEIEKENKRFQEDREFSAGTVYPETNKTKNKGVYSSTNELTTDSTPKKTQAHTQQNMVEKFSQLPFKVEAKPCTSNCRINTFRTVPIEQKHEVWGSNQNYICNTDPETDGLSPSVASPSPKEVNFVSRGASSHQPRVPLFPENGLHQQPEPLLPNNMKSACEKRLGCCSSPHSKPNCSTLSPPMPLPQLLPSVTDARSAGPSDHIDSSVTGVQRFRDTLKIPYKLELKNEPGRTDLKHIVIDGSNVAITHGLKKFFSCRGIAIAVEYFWKLGNRNITVFVPQWRTRRDPNVTEQHFLTQLQELGILSLTPARMVFGERIASHDDRFLLHLADKTGGIIVTNDNFREFVNESVSWREIITKRLLQYTFVGDIFMVPDDPLGRSGPRLEEFLQKEVCLRDMQPLLSALPNVGMFDPSFRVPGTQAASTSHQPPTRIQGAPSSHWLPQQPHFPLLPALPSLQQNLPMPAQRSSAETNELREALLKIFPDSEQRLKIDQILVAHPYMKDLNALSAMVLD

These are yes or no findings as the source states them, for the method shown. In cells and extracts the contact can be indirect. Binding can be weak; no strength is given. Where a sequence is shown, tags or fusion partners need not be part of it.
